# How the values were obtained:
# Assay in all cases: normalized area under the dose-response curve (viability relative to DMSO control) (fraction); higher = less sensitive (more viable cells)
# Conditions in all cases: exposure time not given
# [1] = tested on: HuT 78 (cancer type: TCL)
# Experimental: (§1)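 25 myeloma and 15 non-Hodgkin lymphoma cell lines were exposed to each of 76 drugs as 7-point log dilutions (0.01 nM–10 µM) in duplicate. Viability was read with CellTiter-Glo and normalised to DMSO (0.1%) and staurosporine (10 µM) plate controls. Normalised AUC was calculated by the trapezoidal method relative to the negative control. -1 is used as a placeholder for no value.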
# [2] = tested on: JVM2 (cancer type: Mantle)
# Experimental: as §1
# [3] = tested on: KMS12PE (cancer type: MM)
# Experimental: as §1
# [4] = tested on: KMS34 (cancer type: MM)
# Experimental: as §1
# [5] = tested on: LP1 (cancer type: MM)
# Experimental: as §1
# [6] = tested on: MM1.R (cancer type: MM)
# Experimental: as §1
# [7] = tested on: MM1.S (cancer type: MM)
# Experimental: as §1
# [8] = tested on: NCI-H929 (cancer type: MM)
# Experimental: as §1
# [9] = tested on: OCI-LY1 (cancer type: DLBCL)
# Experimental: as §1
# [10] = tested on: OCI-LY19 (cancer type: DLBCL)
# Experimental: as §1
# [11] = tested on: OCI-LY3 (cancer type: DLBCL)
# Experimental: as §1
# [12] = tested on: OCI-MY5/CRBN (cancer type: MM)
# Experimental: as §1
# [13] = tested on: OCI-MY5/Vec (cancer type: MM)
# Experimental: as §1
# [14] = tested on: OCI-MY7 (cancer type: MM)
# Experimental: as §1
# [15] = tested on: SU-DHL1 (cancer type: TCL)
# Experimental: as §1
# [16] = tested on: SU-DHL2 (cancer type: DLBCL)
# Experimental: as §1
# [17] = tested on: SU-DHL6 (cancer type: DLBCL)
# Experimental: as §1
# [18] = tested on: Se-Ax (cancer type: TCL)
# Experimental: as §1
# [19] = tested on: XG2 (cancer type: MM)
# Experimental: as §1
structure (smiles),measurement,setting,value
C[C@@H]1C[C@H](N)C[C@H](c2ccncc2NC(=O)c2ccc(F)c(-c3c(F)cccc3F)n2)C1 [Igh447],normalized area under the dose-response curve,[1],0.707
same,normalized area under the dose-response curve,[2],0.57
same,normalized area under the dose-response curve,[3],0.63
same,normalized area under the dose-response curve,[4],0.313
same,normalized area under the dose-response curve,[5],0.626
same,normalized area under the dose-response curve,[6],0.57
same,normalized area under the dose-response curve,[7],0.51
same,normalized area under the dose-response curve,[8],0.54
same,normalized area under the dose-response curve,[9],0.771
same,normalized area under the dose-response curve,[10],0.716
same,normalized area under the dose-response curve,[11],0.675
same,normalized area under the dose-response curve,[12],0.866
same,normalized area under the dose-response curve,[13],0.744
same,normalized area under the dose-response curve,[14],0.72
same,normalized area under the dose-response curve,[15],0.591
same,normalized area under the dose-response curve,[16],0.645
same,normalized area under the dose-response curve,[17],0.748
same,normalized area under the dose-response curve,[18],0.559
same,normalized area under the dose-response curve,[19],0.442
